The results in this text go back to the supplement of paper PMC11006884.

Chains of the proteins cited; added tags and fusions are not shown. Lines headed by an entry give the natural chain unless they say otherwise; changes in a name come on top.
UniProt Q8N6R0: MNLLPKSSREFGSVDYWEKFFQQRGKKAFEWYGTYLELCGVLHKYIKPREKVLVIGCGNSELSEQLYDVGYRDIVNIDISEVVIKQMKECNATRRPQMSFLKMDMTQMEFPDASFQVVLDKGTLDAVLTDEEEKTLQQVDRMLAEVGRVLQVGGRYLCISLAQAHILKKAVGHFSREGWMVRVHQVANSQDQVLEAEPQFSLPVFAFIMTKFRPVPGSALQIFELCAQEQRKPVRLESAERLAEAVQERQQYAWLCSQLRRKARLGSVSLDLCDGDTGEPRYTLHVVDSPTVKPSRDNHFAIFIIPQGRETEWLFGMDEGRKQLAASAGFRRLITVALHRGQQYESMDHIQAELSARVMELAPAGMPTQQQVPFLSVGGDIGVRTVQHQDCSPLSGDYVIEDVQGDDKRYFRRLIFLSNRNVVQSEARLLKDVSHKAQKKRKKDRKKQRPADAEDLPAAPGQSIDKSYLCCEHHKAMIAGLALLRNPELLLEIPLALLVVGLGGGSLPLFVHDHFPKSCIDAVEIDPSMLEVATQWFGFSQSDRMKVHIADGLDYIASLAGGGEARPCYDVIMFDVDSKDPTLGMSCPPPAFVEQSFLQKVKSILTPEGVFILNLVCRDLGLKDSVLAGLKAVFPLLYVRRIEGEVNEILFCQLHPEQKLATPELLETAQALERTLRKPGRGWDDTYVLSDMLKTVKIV
UniProt Q8TEX9: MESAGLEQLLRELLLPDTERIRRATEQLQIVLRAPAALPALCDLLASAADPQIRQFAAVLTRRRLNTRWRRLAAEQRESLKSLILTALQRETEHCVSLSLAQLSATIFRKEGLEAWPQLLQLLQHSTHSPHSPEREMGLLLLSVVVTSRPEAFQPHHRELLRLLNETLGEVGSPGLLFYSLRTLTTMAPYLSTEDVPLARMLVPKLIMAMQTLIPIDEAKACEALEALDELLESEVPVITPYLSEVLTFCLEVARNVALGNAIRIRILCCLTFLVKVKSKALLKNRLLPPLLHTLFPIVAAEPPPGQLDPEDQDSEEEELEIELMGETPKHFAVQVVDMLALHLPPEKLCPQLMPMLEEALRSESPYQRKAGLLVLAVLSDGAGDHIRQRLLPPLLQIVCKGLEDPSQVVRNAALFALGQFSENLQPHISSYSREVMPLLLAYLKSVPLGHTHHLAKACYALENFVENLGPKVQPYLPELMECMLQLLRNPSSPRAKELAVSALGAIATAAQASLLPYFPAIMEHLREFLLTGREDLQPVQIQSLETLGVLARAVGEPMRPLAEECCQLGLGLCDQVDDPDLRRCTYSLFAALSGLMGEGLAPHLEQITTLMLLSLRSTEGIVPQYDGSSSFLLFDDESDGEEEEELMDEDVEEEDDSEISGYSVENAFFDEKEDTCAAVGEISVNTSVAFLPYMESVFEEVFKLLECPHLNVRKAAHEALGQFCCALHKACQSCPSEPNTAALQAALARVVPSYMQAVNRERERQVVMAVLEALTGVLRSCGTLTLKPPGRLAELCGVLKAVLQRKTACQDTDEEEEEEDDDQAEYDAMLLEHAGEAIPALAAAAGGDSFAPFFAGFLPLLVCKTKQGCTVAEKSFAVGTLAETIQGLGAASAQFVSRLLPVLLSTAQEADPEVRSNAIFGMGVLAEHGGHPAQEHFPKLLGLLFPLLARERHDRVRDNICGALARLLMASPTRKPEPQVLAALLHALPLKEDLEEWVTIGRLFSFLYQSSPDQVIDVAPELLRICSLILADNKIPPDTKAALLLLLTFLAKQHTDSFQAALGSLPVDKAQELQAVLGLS
UniProt Q8N2F6: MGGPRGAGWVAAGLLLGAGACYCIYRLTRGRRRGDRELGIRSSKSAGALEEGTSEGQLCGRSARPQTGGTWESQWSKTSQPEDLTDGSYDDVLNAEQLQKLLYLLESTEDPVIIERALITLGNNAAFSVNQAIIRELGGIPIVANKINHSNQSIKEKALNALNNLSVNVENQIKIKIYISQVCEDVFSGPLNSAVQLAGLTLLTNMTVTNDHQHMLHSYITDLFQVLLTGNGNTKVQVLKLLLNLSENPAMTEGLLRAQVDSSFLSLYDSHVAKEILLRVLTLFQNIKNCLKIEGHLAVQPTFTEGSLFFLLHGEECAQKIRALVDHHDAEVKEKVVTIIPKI
UniProt Q8WYP5: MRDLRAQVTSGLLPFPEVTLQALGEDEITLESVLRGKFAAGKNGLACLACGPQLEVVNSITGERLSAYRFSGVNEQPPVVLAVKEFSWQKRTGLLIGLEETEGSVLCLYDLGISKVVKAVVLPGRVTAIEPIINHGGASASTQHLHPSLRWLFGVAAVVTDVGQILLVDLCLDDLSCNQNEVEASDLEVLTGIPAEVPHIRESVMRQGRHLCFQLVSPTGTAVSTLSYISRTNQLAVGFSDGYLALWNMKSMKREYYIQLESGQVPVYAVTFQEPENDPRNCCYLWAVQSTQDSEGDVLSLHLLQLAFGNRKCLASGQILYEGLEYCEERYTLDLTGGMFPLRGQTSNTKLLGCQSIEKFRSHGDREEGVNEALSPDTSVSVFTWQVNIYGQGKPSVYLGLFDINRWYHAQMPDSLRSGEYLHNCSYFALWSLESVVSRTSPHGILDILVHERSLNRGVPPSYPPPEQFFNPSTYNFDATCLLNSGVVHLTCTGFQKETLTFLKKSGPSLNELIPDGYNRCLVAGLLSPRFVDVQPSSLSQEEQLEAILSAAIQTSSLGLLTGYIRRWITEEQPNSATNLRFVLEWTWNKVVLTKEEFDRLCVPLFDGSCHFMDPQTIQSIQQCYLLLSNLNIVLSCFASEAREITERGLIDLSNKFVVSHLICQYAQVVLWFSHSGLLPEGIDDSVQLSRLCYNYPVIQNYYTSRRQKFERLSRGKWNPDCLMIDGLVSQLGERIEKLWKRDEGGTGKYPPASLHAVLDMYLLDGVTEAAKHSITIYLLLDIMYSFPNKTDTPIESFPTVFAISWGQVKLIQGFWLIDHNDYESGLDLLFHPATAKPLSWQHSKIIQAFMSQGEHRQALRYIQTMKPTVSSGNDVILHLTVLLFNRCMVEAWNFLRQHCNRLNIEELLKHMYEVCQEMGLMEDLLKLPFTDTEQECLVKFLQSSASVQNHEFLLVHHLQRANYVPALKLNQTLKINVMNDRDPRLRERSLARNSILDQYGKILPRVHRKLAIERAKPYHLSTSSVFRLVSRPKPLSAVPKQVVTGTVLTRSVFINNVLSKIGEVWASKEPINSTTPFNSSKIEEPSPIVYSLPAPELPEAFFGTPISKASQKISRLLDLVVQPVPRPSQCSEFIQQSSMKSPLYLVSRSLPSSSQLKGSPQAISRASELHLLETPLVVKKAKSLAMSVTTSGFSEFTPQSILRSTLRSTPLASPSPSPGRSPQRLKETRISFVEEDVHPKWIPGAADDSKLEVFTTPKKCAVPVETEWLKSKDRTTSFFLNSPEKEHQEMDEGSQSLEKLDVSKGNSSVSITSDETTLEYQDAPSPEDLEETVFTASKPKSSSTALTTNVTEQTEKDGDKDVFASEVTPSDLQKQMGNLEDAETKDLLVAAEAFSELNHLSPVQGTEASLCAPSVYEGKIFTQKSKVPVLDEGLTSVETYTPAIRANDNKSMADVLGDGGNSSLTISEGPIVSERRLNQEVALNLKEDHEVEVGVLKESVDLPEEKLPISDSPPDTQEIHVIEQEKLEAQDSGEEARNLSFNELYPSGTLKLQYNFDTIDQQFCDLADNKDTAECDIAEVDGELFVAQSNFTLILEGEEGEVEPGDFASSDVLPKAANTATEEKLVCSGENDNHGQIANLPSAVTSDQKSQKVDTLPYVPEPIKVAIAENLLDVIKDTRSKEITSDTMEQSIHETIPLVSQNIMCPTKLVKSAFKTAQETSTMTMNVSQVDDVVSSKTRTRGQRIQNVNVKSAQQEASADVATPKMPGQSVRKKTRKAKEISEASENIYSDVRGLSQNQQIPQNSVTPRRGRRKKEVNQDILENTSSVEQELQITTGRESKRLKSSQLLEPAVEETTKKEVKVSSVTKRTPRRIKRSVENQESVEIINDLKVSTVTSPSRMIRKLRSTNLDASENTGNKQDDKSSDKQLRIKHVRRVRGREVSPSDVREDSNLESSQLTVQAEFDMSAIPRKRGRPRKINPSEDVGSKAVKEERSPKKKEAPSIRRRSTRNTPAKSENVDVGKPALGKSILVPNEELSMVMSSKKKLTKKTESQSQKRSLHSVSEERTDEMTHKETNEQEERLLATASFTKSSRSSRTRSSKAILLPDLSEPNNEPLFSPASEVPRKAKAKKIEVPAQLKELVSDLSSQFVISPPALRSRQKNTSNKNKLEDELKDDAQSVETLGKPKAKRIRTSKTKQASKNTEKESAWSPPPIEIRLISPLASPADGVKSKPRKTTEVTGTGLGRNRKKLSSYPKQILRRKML
UniProt Q8N3C0, whole entry, looked up: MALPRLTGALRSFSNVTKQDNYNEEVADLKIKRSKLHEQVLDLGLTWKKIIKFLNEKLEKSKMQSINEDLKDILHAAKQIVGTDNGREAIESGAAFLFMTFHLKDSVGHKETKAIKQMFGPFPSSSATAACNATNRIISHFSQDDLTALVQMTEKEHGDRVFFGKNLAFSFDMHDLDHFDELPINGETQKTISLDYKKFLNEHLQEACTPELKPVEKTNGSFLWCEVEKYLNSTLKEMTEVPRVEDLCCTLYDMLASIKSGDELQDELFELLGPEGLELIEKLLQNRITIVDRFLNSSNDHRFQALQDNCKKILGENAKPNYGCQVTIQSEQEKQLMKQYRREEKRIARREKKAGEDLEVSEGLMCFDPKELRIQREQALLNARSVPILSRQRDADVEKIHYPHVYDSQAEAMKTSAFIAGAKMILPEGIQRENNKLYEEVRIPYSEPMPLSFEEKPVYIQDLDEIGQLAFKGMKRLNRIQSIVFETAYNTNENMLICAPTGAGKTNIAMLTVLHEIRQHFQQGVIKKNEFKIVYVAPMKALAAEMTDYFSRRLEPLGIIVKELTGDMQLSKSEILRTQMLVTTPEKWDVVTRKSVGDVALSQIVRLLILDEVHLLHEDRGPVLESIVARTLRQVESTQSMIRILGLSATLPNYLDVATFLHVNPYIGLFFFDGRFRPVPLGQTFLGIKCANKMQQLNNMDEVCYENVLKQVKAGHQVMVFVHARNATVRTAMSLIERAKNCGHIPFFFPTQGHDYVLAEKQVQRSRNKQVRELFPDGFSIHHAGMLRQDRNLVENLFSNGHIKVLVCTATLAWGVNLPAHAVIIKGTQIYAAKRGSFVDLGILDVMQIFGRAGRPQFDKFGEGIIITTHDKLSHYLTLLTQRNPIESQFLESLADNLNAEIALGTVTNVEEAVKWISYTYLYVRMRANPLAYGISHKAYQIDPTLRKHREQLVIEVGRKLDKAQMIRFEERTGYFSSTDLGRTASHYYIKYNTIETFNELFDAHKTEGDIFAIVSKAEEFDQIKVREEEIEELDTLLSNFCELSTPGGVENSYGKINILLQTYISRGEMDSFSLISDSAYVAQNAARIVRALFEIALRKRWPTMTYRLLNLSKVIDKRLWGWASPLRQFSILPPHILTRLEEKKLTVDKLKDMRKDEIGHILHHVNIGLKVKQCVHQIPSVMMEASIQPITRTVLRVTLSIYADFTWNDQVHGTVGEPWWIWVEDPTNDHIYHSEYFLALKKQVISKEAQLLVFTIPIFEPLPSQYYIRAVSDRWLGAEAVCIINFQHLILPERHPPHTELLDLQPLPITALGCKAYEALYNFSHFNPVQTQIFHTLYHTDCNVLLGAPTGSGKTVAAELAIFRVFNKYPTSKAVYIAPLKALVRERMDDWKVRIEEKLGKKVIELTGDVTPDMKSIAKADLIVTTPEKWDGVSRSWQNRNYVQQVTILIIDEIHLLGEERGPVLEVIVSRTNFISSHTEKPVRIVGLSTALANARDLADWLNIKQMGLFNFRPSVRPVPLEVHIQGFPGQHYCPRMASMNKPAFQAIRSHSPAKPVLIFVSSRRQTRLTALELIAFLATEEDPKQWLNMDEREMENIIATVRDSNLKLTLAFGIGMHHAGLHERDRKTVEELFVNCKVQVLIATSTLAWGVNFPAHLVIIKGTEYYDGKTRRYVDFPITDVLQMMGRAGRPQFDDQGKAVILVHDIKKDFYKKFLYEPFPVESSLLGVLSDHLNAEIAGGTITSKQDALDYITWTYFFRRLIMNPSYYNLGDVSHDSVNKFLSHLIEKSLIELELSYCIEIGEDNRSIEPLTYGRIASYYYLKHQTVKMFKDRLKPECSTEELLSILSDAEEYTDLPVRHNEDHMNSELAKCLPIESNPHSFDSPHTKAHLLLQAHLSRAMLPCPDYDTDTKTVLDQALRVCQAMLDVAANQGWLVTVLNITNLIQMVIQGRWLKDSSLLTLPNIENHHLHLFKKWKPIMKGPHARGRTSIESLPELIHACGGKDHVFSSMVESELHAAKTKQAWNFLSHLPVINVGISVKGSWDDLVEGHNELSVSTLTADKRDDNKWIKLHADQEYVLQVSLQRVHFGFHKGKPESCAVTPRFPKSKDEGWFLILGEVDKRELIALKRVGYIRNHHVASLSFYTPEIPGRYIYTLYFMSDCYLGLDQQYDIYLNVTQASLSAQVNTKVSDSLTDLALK

The list shows a part of the results, in another mix than the full data.

Compound in this assay: COC(=O)C#Cc1ccccc1 [methyl 3-phenylpropiolate]
Kind of assay: log2 ratio of iodoacetamide-alkyne labeling of the cysteine site, DMSO over compound (competition); higher = stronger covalent engagement of the cysteine by the compound, active = 1 or more. The following applies: 500 µM; treatment time 1 h; system: HEK293T cell lysate. The method, boiled down:
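HEK293T lysate at 2 mg/mL was treated with vehicle or electrophile (500 µM) for 1 h at ambient temperature, then labelled with iodoacetamide alkyne (1 h), clicked to sCIP-TMT reagents, pooled, digested with trypsin overnight at 37 °C, enriched on streptavidin and eluted with acid. Peptides were analysed by Orbitrap Eclipse LC-MS/MS with FAIMS and quantified in FragPipe, using duplicate channels and three replicates, with cysteines quantified in only one replicate excluded. The log2 competition ratio for each cysteine is the mean control-channel reporter intensity divided by the mean compound-channel reporter intensity.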
Consider NUP133 C700 (UniProt Q8WUM0), for which the “log2 ratio of iodoacetamide-alkyne labeling” value (“log2 ratio” for short) is inactive: 0.279.
Under UniProt Q8WZA9_C152 stands inactive: 0.611.
The result for LZTR1 C342 (UniProt Q8N653) reads inactive: 0.244; that for UniProt Q8N6R0_C391, inactive: 0.2.
The result for TBC1D15 C686 (UniProt Q8TC07) reads inactive: 0.635.
With IPO4 C400 (UniProt Q8TEX9), the “log2 ratio” value was inactive: 0.365.
Under BCL7C C211 (UniProt Q8WUZ0) stands inactive: 0.622; under GATAD2B C420 (UniProt Q8WXI9), inactive: 0.12.
The result for BICD2 C754 (UniProt Q8TD16) reads inactive: 0.332; that for UniProt Q8N6R0_C273, inactive: 0.102; that for UniProt Q8N6R0_C226, inactive: 0.074.
The result for FBXO30 C396 (UniProt Q8TB52) reads inactive: 0.433; that for ARMC10 C59 (UniProt Q8N2F6), inactive: 0.628; that for PUM2 C169 (UniProt Q8TB72), inactive: 0.0838.
Turning to UniProt Q8N0X7_C272, the “log2 ratio” value is inactive: 0.213.
Under NHLRC2 C716 (UniProt Q8NBF2) stands inactive: 0.101; under DDX1 C231 (UniProt Q92499), inactive: 0.159.
As for FLAD1 C499 (UniProt Q8NFF5), the “log2 ratio” value is active: 1.06.
Under CHTF18 C542 (UniProt Q8WVB6) stands inactive: 0.274; under SMAP2 C196 (UniProt Q8WU79), inactive: 0.318; under PREX1 C52 (UniProt Q8TCU6), inactive: 0.192.
Under WDR48 C342 (UniProt Q8TAF3) stands inactive: 0.185; under BBX C599 (UniProt Q8WY36), inactive: 0.284; under AHCTF1 C521 (UniProt Q8WYP5), active: 1.16.
ZADH2 C55 (UniProt Q8N4Q0): the “log2 ratio” value is inactive: -0.176.
Under FLAD1 C236 (UniProt Q8NFF5) stands inactive: 0.312.
LRRC47 C224 (UniProt Q8N1G4): the “log2 ratio” value was inactive: 0.643.
The result for ALDH16A1 C472 (UniProt Q8IZ83) reads inactive: 0.154; that for DUSP19 C188 (UniProt Q8WTR2), inactive: 0.264; that for NCOA7 C439 (UniProt Q8NI08), inactive: 0.264.
Under RPTOR C36 (UniProt Q8N122) stands inactive: 0.416.
The result for VPS8 C1371 (UniProt Q8N3P4) reads inactive: 0.234; that for SRBD1 C165 (UniProt Q8N5C6), inactive: -0.167.
Regarding UniProt Q8NBJ5_C412, the “log2 ratio” value is inactive: 0.133.
The result for UniProt Q8N163_C324 reads inactive: 0.243; that for ASCC3 C742 (UniProt Q8N3C0), inactive: 0.933; that for VPS8 C864 (UniProt Q8N3P4), inactive: 0.00127.
